## Primary screen of a compound library

Amino acid sequences for entries named in this document (tags omitted).
UniProt E9BF75, entry or part of it: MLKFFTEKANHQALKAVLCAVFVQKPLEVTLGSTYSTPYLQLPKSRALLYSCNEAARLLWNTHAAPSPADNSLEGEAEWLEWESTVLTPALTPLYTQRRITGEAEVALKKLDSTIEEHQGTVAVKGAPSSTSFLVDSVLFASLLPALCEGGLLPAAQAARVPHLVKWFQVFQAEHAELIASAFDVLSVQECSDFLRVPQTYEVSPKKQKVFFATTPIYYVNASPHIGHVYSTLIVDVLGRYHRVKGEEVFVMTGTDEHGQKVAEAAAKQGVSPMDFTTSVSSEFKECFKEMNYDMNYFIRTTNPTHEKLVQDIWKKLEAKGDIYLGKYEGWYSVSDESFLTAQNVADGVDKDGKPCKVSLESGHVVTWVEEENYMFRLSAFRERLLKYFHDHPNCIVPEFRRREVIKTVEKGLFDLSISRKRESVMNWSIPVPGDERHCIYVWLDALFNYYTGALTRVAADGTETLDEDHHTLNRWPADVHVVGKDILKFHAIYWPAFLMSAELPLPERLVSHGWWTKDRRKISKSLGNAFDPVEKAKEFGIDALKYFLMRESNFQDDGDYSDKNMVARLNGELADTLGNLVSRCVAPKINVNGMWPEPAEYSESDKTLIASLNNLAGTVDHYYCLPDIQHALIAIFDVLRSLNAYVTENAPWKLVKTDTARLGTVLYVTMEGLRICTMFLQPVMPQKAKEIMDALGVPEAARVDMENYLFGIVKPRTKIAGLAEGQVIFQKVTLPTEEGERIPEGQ

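Methionyl-tRNA synthetase (putative), Leishmania donovani (UniProt E9BF75). Primary screen of methionyl-tRNA synthetase; the read-out is not stated. The test concentration is not given. The values are filed as inhibition. About 68,000 compounds were tested under these conditions; 0.035% (about 24) showed 50% or more at least once.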

Results are percentages, as filed. The controls that fix the scale are not given in the record; negative values are as filed. This is an unselected part of the compounds tested.

| # | structure | inhibition |
|---|---|---|
| 1 | `CCCc1n[nH]c(C2CN(CCn3cccn3)CCO2)n1` (centres undefined) | 13.27 |
| 2 | `O=C(O)c1ccccc1-c1ccc(CN2CCC(CO)CC2)cn1` | 15.56 |
| 3 | `Oc1nc(N2CCCC2)nc2c1CCN(Cc1ccsc1)CC2` | 14.19 |
| 4 | `Cc1oc(C(=O)Nc2cccc(Cl)c2C)cc1S(N)(=O)=O` | 15.76 |
| 5 | `CSc1ccc(C(CNC(C)=O)N2CCc3sccc3C2)cc1` (centres undefined) | 8.609 |
| 6 | `COc1ccc(CNC(=O)N2CCC(Cc3cnn(C)c3)C2)cc1C` (centres undefined) | 12.27 |
| 7 | `CC(C)(Oc1ccc2c(c1)CCCC2=O)C(=O)NCc1ccco1` | 17.04 |
| 8 | `CCOCC1CN(Cc2ccncc2)Cc2nn(C)cc21` (centres undefined) | 6.536 |
| 9 | `CNC(=O)[C@@H]1CC[C@@H]2[C@@H](CCN2Cc2ccccc2F)O1` | 8.759 |
| 10 | `FC(F)(F)Oc1cccc(CNCc2ccc(-n3cncn3)nc2)c1` | 8.123 |
| 11 | `CN(Cc1ccccc1F)C(=O)c1ccoc1` | 7.617 |
| 12 | `Cn1nc(Cn2cccn2)c2c1CN(Cc1ccoc1)C2` | 21.01 |
| 13 | `COCCN1C(=O)CC[C@]12CC[C@@H](NCc1nccs1)CC2` | 7.266 |
| 14 | `CC(=O)c1ccc(-n2c(C)cn(CCS(C)(=O)=O)c2=O)cc1` | 13.99 |
| 15 | `Cn1ncc(C(=O)OCC2CCN(c3ccccc3)C2)c1C(F)F` (centres undefined) | 5.707 |
| 16 | `CC1CCCCN1C(=O)Cn1cnc(C#N)n1` (centres undefined) | 5.775 |
| 17 | `Cn1cccc1C(=O)N1CC[C@@H]2[C@@H]1CC(=O)N2CCN1CCOCC1` | 18.75 |
| 18 | `CS(=O)(=O)CCNCc1ccc(OCc2ccncc2)cc1` | 22.73 |
| 19 | `CC(C(=O)N1CCCN(Cc2cnn(C(C)C)c2)CC1)n1ccnc1` (centres undefined) | 13.89 |
| 20 | `NC(=O)CCc1cccc(C2CCNCC2)n1` | 2.1 |
| 21 | `CCNc1cc2c(nn1)CCN(C(=O)Cc1c(C)noc1C)C2` | 7.087 |
| 22 | `CN(CCCC1CCCO1)C(=O)c1cccc(C#N)c1` (centres undefined) | 13.01 |
| 23 | `O=C(c1ccccn1)N1CC[C@H]2[C@H]1CCN2S(=O)(=O)C1CC1` | 5.479 |
| 24 | `Cc1nccn1-c1ccc(C(C)NCCC(C)C)cc1` (centres undefined) | 7.88 |
| 25 | `Cc1nsc(N2CCc3sccc3C2)n1` | 10.87 |
| 26 | `CN(C)c1ncnc2c1CCN(c1cccc(F)c1)CC2` | -4.762 |
| 27 | `O=C(CCc1nc2ccccc2[nH]1)Nc1ccc2c(c1)OCC(=O)N2` | 13.04 |
| 28 | `CCn1c(C)nc2cc(NC(=O)CC3CCN(S(C)(=O)=O)CC3)ccc21` | 5.901 |
| 29 | `CN1CCN(c2ccc(CO)cc2F)CC1` | 12.81 |
| 30 | `O=C(C1CCC1)N1C[C@@H]2CC[C@H](C1)N(S(=O)(=O)c1ccccc1)C2` | 11.2 |
| 31 | `Cn1cc(C2=NOC(C(=O)NC3(c4ccccc4F)CCCC3)C2)cn1` (centres undefined) | 1.869 |
| 32 | `CC(=O)NC(C)C(=O)N(Cc1ccc(C)c(C)c1)C1CC1` (centres undefined) | 13.83 |
| 33 | `Cn1ccnc1-c1ccc(NCC2COc3ccccc3O2)nn1` (centres undefined) | 11.56 |
| 34 | `Cc1nn(-c2ccccc2)c2c1c(C(F)F)cc(=O)n2CC(=O)O` | -28.89 |
| 35 | `CC1CN(C)CCN1Cc1cccc(C(=O)N(C)C)c1` (centres undefined) | 11.85 |
| 36 | `Cn1cccc1C(=O)NCc1cn2c(n1)CN(c1ncccn1)CC2` | 12.64 |
| 37 | `Cc1nn(C)c(C)c1C1COCCN1C(=O)CC(C)(C)C` (centres undefined) | 1.52 |
| 38 | `CS(=O)(=O)Cc1nc(CN2CCOc3ccccc3C2)cs1` | 3.846 |
| 39 | `Cc1nc(CCNC(=O)C2CC(=O)N(C(C)(C)C)C2)sc1Cl` (centres undefined) | 11.24 |
| 40 | `CCc1nnc2ccc(NCC3(N4CCCCC4)CCOCC3)nn12` | 11.28 |
| 41 | `CC(C)Cc1cc(NC(=O)c2ccccc2)n(C)n1` | 16.24 |
| 42 | `Cc1cccc(CN(C(=O)CS(C)(=O)=O)C(C)C)c1` | 16.12 |
| 43 | `Cc1oc(C)c(C(=O)NCc2ccccc2S(=O)(=O)N(C)C)c1C` | 14.29 |
| 44 | `Cc1ccc(OCC2CCCN(C(=O)CN3CCOCC3)C2)cc1` (centres undefined) | 19.16 |
| 45 | `Cc1nc(CN2CCN(C(=O)CCc3ccco3)CC2)cs1` | 7.977 |
| 46 | `O=C(O)CCc1cccc(C2CCCN2Cc2cccc(Cl)c2)n1` (centres undefined) | 1.562 |
| 47 | `CC1=C(C(=O)NCCc2n[nH]c3c2CCCC3)C(C)NC(=O)N1` (centres undefined) | -14.04 |
| 48 | `COc1ccc(CC(=O)N2CC[C@@H](OC)[C@@H]2Cc2cccnc2)cc1` | 9.89 |
| 49 | `COc1cc(-c2cnnc(NCC3CC3)n2)cc(OC)c1OC` | -1.117 |
| 50 | `COC(=O)C1CCN(C(=O)c2ccc(N(C)S(C)(=O)=O)c(C)c2)CC1` | 14.07 |
| 51 | `Cc1ccc(OC2(C(=O)NC(C)Cc3ccncc3)CCNCC2)cc1` (centres undefined) | 20 |
| 52 | `CC(NC1CCN(CC(=O)N(C)C)CC1)c1cnn(C(C)C)c1` (centres undefined) | 0.8876 |
| 53 | `NC(=O)CCNC(=O)C1(N2CCCCC2)Cc2ccccc2C1` | 2.801 |
| 54 | `CCN1C(=O)[C@H]2CN(CC(C)C)C[C@H]2C12CCN(C(=O)NC(C)C)CC2` | 12.06 |
| 55 | `O=C(CN1CCNC1=O)NCc1ccc2sccc2c1` | 17.72 |
| 56 | `Nc1nc(CN2CCOC(Cn3cncn3)C2)nc2ccccc12` (centres undefined) | 11.75 |
| 57 | `O=C(O)c1cc(-n2cc3c(n2)CCC3)cc(S(=O)(=O)NC2CCCC2)c1` | 12.15 |
| 58 | `COCCCNC(=O)CN1CCC(c2ccccc2)C1` (centres undefined) | 6.799 |
| 59 | `c1cnc2[nH]c(C3CCCNC3)c(CN3CCCOCC3)c2c1` (centres undefined) | 11.98 |
| 60 | `CC(NC(=O)CCOc1cccc(F)c1)c1nnc2n1CCC2` (centres undefined) | 15.03 |
| 61 | `COCCCN(Cc1cc(O)nc2ccccc12)C(=O)NC(C)C` | 8.065 |
| 62 | `CC(C)N1CCC(NC(=O)NCc2cccnc2)C1` (centres undefined) | 12.93 |
| 63 | `CC(C)n1cc(CN2CCCN(C(=O)C(C)n3cccn3)CC2)cn1` (centres undefined) | 20.56 |
| 64 | `CN(C)c1nc(N)nc(CN2CCCC(c3ccccc3)CC2)n1` (centres undefined) | 15.41 |
| 65 | `CC(C)(C)C(=O)NCCC(=O)NS(=O)(=O)c1ccc2c(c1)OCCO2` | -1.478 |
| 66 | `CCCC(O)CN1CCC(=O)N(CC2CC2)Cc2cc3c(cc21)OCO3` (centres undefined) | 0.274 |
| 67 | `CCCN1CCN(C(=O)c2scnc2C)CC1` | 11.97 |
| 68 | `Cc1ncc(CNC(=O)NC2CCN(C3CCCC3)CC2)s1` | 16.81 |
| 69 | `CCCc1nc(CN2CCOC(Cn3cncn3)C2)cs1` (centres undefined) | 2.514 |
| 70 | `CCOc1ccc(C(F)(F)F)cc1NC(=O)N1CCC(C(N)=O)CC1` | 14.1 |
| 71 | `COc1c(C)cnc(CN2CCn3c(nnc3C3CC3)C2)c1C` | 13.73 |
| 72 | `CCOCCN1CCN(CCc2ccc3c(c2)CCO3)CC1` | 8.009 |
| 73 | `CN(Cc1cnn(C)c1)C(=O)C1CCCN1Cc1ccccn1` (centres undefined) | 10.24 |
| 74 | `Cn1nc(CNC(=O)C2CCC2)cc1C1CC1` | 11.27 |

Some entries from above, unchanged:

| structure | inhibition |
|---|---|
| `COc1ccc(CNC(=O)N2CCC(Cc3cnn(C)c3)C2)cc1C` (centres undefined) | 12.27 |
| `Cc1nc(CN2CCN(C(=O)CCc3ccco3)CC2)cs1` | 7.977 |
| `CN(Cc1cnn(C)c1)C(=O)C1CCCN1Cc1ccccn1` (centres undefined) | 10.24 |
| `O=C(CCc1nc2ccccc2[nH]1)Nc1ccc2c(c1)OCC(=O)N2` | 13.04 |
| `CN(CCCC1CCCO1)C(=O)c1cccc(C#N)c1` (centres undefined) | 13.01 |

Measurements from “University of Dundee, Small-Polar-MMV Screening Library” (2021), ChEMBL document CHEMBL3988442.